{"source": "paper PMC8677719", "experiment_in_all_cases": "EMSA", "key": {"[1]": {"tested_on": "FLAG-As-NF-kB1 (Acanthoeca spectabilis)", "conditions": "EMSA: 10 mM HEPES pH 7.8, 50 mM KCl, 1 mM DTT, 1 mM EDTA, 4% glycerol, 40 ug/ml poly-dI-dC, 2X BSA, 50 ug 293T extract, 30 C 30 min; protein in a lysate after overexpression; protein details: FLAG; label: 32P"}, "[2]": {"tested_on": "FLAG-As-NF-kB2 (Acanthoeca spectabilis)", "conditions": "EMSA: 10 mM HEPES pH 7.8, 50 mM KCl, 1 mM DTT, 1 mM EDTA, 4% glycerol, 40 ug/ml poly-dI-dC, 2X BSA, 50 ug 293T extract, 30 C 30 min; protein in a lysate after overexpression; protein details: FLAG; label: 32P"}, "[3]": {"tested_on": "FLAG-As-NF-kB3 (Acanthoeca spectabilis)", "conditions": "EMSA: 10 mM HEPES pH 7.8, 50 mM KCl, 1 mM DTT, 1 mM EDTA, 4% glycerol, 40 ug/ml poly-dI-dC, 2X BSA, 50 ug 293T extract, 30 C 30 min; protein in a lysate after overexpression; protein details: FLAG; label: 32P"}, "[4]": {"biological_target": "T1, FLAG-Co-Cterm (Capsaspora owczarzaki) (UniProt F1ARL5)", "T1 sequence (looked up, limits assumed)": "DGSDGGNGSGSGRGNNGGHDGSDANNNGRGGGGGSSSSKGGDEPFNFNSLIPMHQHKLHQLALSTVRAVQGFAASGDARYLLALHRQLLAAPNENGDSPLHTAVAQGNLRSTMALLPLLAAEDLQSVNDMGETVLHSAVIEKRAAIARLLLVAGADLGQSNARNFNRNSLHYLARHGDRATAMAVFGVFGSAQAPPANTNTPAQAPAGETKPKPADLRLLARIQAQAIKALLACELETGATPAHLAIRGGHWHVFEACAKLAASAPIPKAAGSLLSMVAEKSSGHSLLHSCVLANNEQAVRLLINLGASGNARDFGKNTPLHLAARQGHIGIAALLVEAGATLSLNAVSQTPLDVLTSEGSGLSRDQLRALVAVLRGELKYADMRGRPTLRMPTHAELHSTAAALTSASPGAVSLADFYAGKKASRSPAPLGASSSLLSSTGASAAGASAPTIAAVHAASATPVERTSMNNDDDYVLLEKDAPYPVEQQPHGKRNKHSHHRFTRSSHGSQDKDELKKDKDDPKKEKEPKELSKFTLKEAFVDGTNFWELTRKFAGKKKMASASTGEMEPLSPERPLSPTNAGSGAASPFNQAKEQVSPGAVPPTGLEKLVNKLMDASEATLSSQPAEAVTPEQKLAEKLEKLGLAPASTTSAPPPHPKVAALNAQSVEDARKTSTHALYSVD", "conditions": "EMSA: 10 mM HEPES pH 7.8, 50 mM KCl, 1 mM DTT, 1 mM EDTA, 4% glycerol, 40 ug/ml poly-dI-dC, 2X BSA, 50 ug 293T extract, 30 C 30 min; protein in a lysate after overexpression; protein details: FLAG (N-terminal); label: 32P"}, "[5]": {"biological_target": "T2, FLAG-Co-NF-kB full-length (Capsaspora owczarzaki) (UniProt F1ARL5)", "T2 sequence (looked up, limits assumed)": "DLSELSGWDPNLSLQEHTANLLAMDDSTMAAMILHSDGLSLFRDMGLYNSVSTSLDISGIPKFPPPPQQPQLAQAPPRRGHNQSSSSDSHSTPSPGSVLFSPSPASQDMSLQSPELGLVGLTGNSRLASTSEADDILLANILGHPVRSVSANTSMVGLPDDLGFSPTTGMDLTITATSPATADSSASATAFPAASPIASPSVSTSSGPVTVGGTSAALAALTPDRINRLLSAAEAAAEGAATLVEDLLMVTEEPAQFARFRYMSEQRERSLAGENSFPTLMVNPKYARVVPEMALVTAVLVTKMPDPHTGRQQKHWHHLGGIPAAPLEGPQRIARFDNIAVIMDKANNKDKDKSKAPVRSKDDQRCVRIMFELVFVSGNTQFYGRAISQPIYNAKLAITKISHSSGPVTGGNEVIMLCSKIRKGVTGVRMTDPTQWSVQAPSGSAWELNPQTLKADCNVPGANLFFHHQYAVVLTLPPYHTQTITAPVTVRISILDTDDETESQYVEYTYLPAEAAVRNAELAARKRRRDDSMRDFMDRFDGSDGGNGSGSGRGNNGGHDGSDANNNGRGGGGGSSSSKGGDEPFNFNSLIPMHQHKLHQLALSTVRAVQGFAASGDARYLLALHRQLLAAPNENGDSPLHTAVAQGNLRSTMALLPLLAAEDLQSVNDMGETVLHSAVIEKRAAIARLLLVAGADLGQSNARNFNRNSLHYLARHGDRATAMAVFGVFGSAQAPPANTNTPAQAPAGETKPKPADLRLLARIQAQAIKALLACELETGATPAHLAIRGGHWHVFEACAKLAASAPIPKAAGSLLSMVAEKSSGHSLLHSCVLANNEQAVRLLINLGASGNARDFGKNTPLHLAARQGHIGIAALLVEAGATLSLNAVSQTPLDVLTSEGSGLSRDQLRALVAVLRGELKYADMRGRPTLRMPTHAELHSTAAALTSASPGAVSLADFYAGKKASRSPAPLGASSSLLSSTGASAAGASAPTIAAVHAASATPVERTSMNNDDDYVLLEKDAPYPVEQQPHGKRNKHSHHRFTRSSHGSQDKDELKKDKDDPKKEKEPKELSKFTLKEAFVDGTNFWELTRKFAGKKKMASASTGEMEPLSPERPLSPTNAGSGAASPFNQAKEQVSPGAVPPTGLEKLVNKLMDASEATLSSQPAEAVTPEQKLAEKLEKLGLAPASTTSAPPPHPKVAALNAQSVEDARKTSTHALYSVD", "conditions": "EMSA: 10 mM HEPES pH 7.8, 50 mM KCl, 1 mM DTT, 1 mM EDTA, 4% glycerol, 40 ug/ml poly-dI-dC, 2X BSA, 50 ug 293T extract, 30 C 30 min; protein in a lysate after overexpression; protein details: FLAG (N-terminal); label: 32P"}, "[6]": {"biological_target": "T3, FLAG-Co-RHD (Capsaspora owczarzaki) (UniProt F1ARL5)", "T3 sequence (looked up, limits assumed)": "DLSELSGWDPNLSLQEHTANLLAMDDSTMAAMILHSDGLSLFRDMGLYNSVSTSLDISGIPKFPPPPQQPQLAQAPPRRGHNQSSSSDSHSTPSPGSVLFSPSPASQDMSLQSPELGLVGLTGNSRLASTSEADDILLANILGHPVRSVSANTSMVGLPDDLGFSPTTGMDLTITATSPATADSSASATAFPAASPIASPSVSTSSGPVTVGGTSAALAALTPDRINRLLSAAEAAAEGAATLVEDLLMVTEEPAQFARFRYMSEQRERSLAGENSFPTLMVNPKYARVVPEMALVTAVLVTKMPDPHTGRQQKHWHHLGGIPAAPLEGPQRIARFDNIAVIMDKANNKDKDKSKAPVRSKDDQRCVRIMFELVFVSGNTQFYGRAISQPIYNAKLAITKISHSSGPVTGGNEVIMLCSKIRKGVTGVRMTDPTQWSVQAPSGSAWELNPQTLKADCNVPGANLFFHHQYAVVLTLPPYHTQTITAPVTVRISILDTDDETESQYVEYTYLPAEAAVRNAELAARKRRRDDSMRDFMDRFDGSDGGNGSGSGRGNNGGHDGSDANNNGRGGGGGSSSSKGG", "conditions": "EMSA: 10 mM HEPES pH 7.8, 50 mM KCl, 1 mM DTT, 1 mM EDTA, 4% glycerol, 40 ug/ml poly-dI-dC, 2X BSA, 50 ug 293T extract, 30 C 30 min; protein in a lysate after overexpression; protein details: FLAG (N-terminal); label: 32P"}, "[7]": {"tested_on": "FLAG-Nv-NF-kB (Nematostella vectensis)", "conditions": "EMSA: 10 mM HEPES pH 7.8, 50 mM KCl, 1 mM DTT, 1 mM EDTA, 4% glycerol, 40 ug/ml poly-dI-dC, 2X BSA, 50 ug 293T extract, 30 C 30 min; protein in a lysate after overexpression; protein details: FLAG; label: 32P"}}, "note": "At least one result comes from cells or an extract, where the contact may be indirect. For some of these results: Negatives hold for the conditions tested. For some of these results: Where a protein sequence is shown, tags need not be part of it. For some of these results: For at least one entry, the source does not settle the construct or the ends of the probe. For some of these results: A weaker result is weaker than the reference pair of the same experiment."}
{"sequence": "TCGAGAGGTCGGGGAATTCCCCCCCCG / TCGACGGGGGGGGAATTCCCCGACCTC [kB-site EMSA probe]", "values": [{"measurement": "binding result", "setting": "[1]", "value": "binds more weakly"}, {"measurement": "binding result", "setting": "[2]", "value": "binds"}, {"measurement": "binding result", "setting": "[3]", "value": "binds"}, {"measurement": "binding result", "setting": "[4]", "value": "no binding"}, {"measurement": "binding result", "setting": "[5]", "value": "no binding"}, {"measurement": "binding result", "setting": "[6]", "value": "binds"}, {"measurement": "binding result", "setting": "[7]", "value": "binds"}]}
